From the RNAGym collection of RNA variant scans (doi:10.1126/science.aae0568)
Variants at the floor of the assay are shown more often than the library holds them.

B1: tRNA (parent)
chain: GUUCCGUUGGCGUAAUGGUAACGCGUCUCCCUCCUAAGGAGAAGACUGCGGGUUCGAGUCCCGUACGGAACG

Variants of: B1
Assay: yeast fitness relative to wild type (ratio to wild type); higher = fitter; tRNA-Arg(CCU), competitive growth, 37 C, YPD
Outline: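 Genotype frequency changes were the basis for Darwinian fitness relative to wild type. The frequencies came from 100-nucleotide paired-end sequencing of gene amplicons from the start population and each end population of pooled yeast strains with tRNA-Arg(CCU) gene variants at the native locus. Competition ran in YPD at 37°C for 24 hours in six replicates, genotypes needed ≥ 100 starting reads, and estimates < 0.5 were set to 0.5.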

| Variant | yeast fitness |
| --- | --- |
| G10C G23C A45U U59G | 0.528 |
| U8A C34U C66U | ≤ 0.5 |
| A20C C29U C49G U59C C62G | ≤ 0.5 |
| U16A A43C G67C | ≤ 0.5 |
| U19A C22A A37U G38C U53A | ≤ 0.5 |
| A21C U35C G63A A65G | ≤ 0.5 |
| U8C C46A | 1.01 |
| U7A U16C A21U U26A C46U C60U | 0.55 |
| U3G C11U U47A A69G | ≤ 0.5 |
| C4A A57U G58C | ≤ 0.5 |
| A36C A43C C61G A70G | ≤ 0.5 |
| C4U A15C G41A G63C | ≤ 0.5 |
| G41C G56A | 0.825 |
| A14U G50A U54A | ≤ 0.5 |
| C4G C5G C11U C29U G51A | ≤ 0.5 |
| A21U A37U A45U | ≤ 0.5 |
| C5U G25U U64G | ≤ 0.5 |
| C31G G68C | 0.684 |
| U7A G12A C30U | ≤ 0.5 |
| C11A C27U G58A | ≤ 0.5 |
| U8A C30U | 0.665 |
| C22U C31G G38A U47A | ≤ 0.5 |
| U7C C11G C24A U47A U64C G67U | ≤ 0.5 |
| C55U U59C A65C | ≤ 0.5 |

| Variant | yeast fitness |
| --- | --- |
| A37U C55G C61U C62U | ≤ 0.5 |
| C5A G17A A43U C55U | ≤ 0.5 |
| G17C A20C C22G A42C G68C | ≤ 0.5 |
| G17A A21G A40G A42C G68C | ≤ 0.5 |
| C34G G41C C49U C62A | ≤ 0.5 |
| U8C A15C A45C | 0.674 |
| U26A A43U G63C | ≤ 0.5 |
| C33G G38C C62A | ≤ 0.5 |
| G38A A40C G56A C60U C61G | ≤ 0.5 |
| U2G C11U U28C C29G | ≤ 0.5 |
| G12C C22U U28A | 0.52 |
| C4U A14C G44A U54A A70U | ≤ 0.5 |
| C27G G41A | 1.03 |
| C5U U35C | 0.811 |
| U16G C55U A65C | ≤ 0.5 |
| A37U A42G C62U | ≤ 0.5 |
| A40C C49U A69C | 0.592 |
| C4U G9A C22G A42U C62A C66G | ≤ 0.5 |
| U3A C4U C5U | 0.594 |
| G9A U16A C29U G39C U54C | ≤ 0.5 |
| A15G A21G C34G A45G | ≤ 0.5 |
| A15C A36U C66A | ≤ 0.5 |
| A15C C27U G52A C61A A70U | ≤ 0.5 |
| U8C A20C C27G C46A G50A | ≤ 0.5 |

| Variant | yeast fitness |
| --- | --- |
| U28C A43U U47A | ≤ 0.5 |
| U54G G63A A65G G68U A70C | ≤ 0.5 |
| C5A C34G A43U | ≤ 0.5 |
| C5G G63C A69C | ≤ 0.5 |
| A21U C24G C62G | ≤ 0.5 |
| C34U C60U C62G | ≤ 0.5 |
| A14C G23A C29U U35C G48A | ≤ 0.5 |
| U13A A15G C22G C24U G44A U53G | ≤ 0.5 |
| G6A G38A A43G | ≤ 0.5 |
| C5U C27G C31G G41C G50A C61G | ≤ 0.5 |
| A20G A21C G39C C49U A65U | ≤ 0.5 |
| U13A C33A A36U A70C | 0.518 |
| C5U C11A C24G C27G A36U G38C C60G C66A | 0.522 |
| C11U A14G G23C A40G | ≤ 0.5 |
| G6C G17A A36U A57G U59C A69U | ≤ 0.5 |
| C4A A43G A57U | ≤ 0.5 |
| G6A A21U U26C G39A A45C | ≤ 0.5 |
| C33A U35C A42C A45C U47G | ≤ 0.5 |
| U2G G9A A36G A57G C60U | 0.672 |
| A15C G18C C55A A69C | ≤ 0.5 |
| U16C A20U G25A U28C C30G | ≤ 0.5 |
| C5G C22U U32G C34U A40G C66U | ≤ 0.5 |
| U2G U47C C62G | ≤ 0.5 |
| G12A C62G G63A | ≤ 0.5 |

| Variant | yeast fitness |
| --- | --- |
| C5A U28G G44A | ≤ 0.5 |
| U28C C61G A69U | ≤ 0.5 |
| C30U C34U C46A C61U | ≤ 0.5 |
| C24G C30G G39A C55A C62A | ≤ 0.5 |
| A15C A21C C34G | ≤ 0.5 |
| A14C A21C C24U A36U A43U G58C C66A | ≤ 0.5 |
| G9A C22G A45G | 0.588 |
| A15C C27U U28A A40U | ≤ 0.5 |
| A15C U26C C30U | ≤ 0.5 |
| C5G U53C A65C | ≤ 0.5 |
| C4G U35C G39A | ≤ 0.5 |
| U16A C34A G39A | ≤ 0.5 |
| G12A C24A C31U A45U A69U | ≤ 0.5 |
| C5A C11G G41C C49A C60G C61U | ≤ 0.5 |
| C4U C5A C29A C30G G38U | ≤ 0.5 |
| A21U G25A G56C | ≤ 0.5 |
| C24G A57C | ≤ 0.5 |
| U26A C30A G68C | ≤ 0.5 |
| A15G A21C C24U A36U A43U G58C C66A | ≤ 0.5 |
| C4U C5G C62U C66G | ≤ 0.5 |
| C33U A69C | 0.726 |
| C31G U53A C55U A57C C60G G67C | ≤ 0.5 |
| G6C U53C A65G | ≤ 0.5 |
| C30G C46U C49G G63U U64A | ≤ 0.5 |

| Variant | yeast fitness |
| --- | --- |
| C30A C49G C55A | ≤ 0.5 |
| G12C C49A | 0.562 |
| G12A A37G A42U G52C G67C A69U | ≤ 0.5 |
| C5G U28G C30G A40C A42U | ≤ 0.5 |
| U8C C66A | 0.687 |
| C34U G56A C60G C66G | ≤ 0.5 |
| G25C C29A G52A C66U | ≤ 0.5 |
| U3A C4A C29U A36U C66U G67A | ≤ 0.5 |
| U28C A57G C66G | ≤ 0.5 |
| A14G U19C C60G | ≤ 0.5 |
| G12A U13C U16A U19G G23A A57U U59A A69G | ≤ 0.5 |
| G6A A14C A42U G56A G63C U64C | ≤ 0.5 |
| A45G A57G C60U G68C | ≤ 0.5 |
| U7A A14U A57U | ≤ 0.5 |
| U13C C27G U35G C49G A57C | ≤ 0.5 |
| U26C U32A C34U G38C G51A C60U C62U | ≤ 0.5 |
| G12C C33G U54A U59A G67A | ≤ 0.5 |
| C24A U26G U35G G51C G58A | ≤ 0.5 |
| U7G A37U G39C A45G G50A | ≤ 0.5 |
| A20U C29A C30A U53G C62G | ≤ 0.5 |
| U26G C33G U35A C55U A65C | ≤ 0.5 |
| C31U C33G A36C A42C C61G | ≤ 0.5 |
| U8A A21G C60G | ≤ 0.5 |
| U3A U26C C62A C66G | ≤ 0.5 |

| Variant | yeast fitness |
| --- | --- |
| G18C C22G C33G | ≤ 0.5 |
| C5U C24U G41C | ≤ 0.5 |
| A20C C49A G52A C61U | ≤ 0.5 |
| C29U C31U G41C | ≤ 0.5 |
| G9A A45U A70U | 1.01 |
| C62U G68C A69G | 0.567 |
| C5U C22U C27G A70G | ≤ 0.5 |
| U32C C46G G58C G68U | ≤ 0.5 |
| G10C A37U A45G | ≤ 0.5 |
| C5G U53A G58A C66U | ≤ 0.5 |
| G10C A40U U47C G68A | ≤ 0.5 |
| G23U C29U C31G C33A | ≤ 0.5 |
| A15C G18A A20U A69C | ≤ 0.5 |
| C27U U35A G50C G51C A69U | ≤ 0.5 |
| U32G C61U C66U | 0.577 |
| C33A A37G G39C C55U C62G | ≤ 0.5 |
| C33G U47A G50A G51A | ≤ 0.5 |
| A43U G48C U54C C60A U64A | ≤ 0.5 |
| C11U G39C U59A | ≤ 0.5 |
| G6A C24U A37U A40U | ≤ 0.5 |
| G18C A37C C49G A70G | ≤ 0.5 |
| C4G A14C A57U C60G | ≤ 0.5 |
| U19C C60G A69U | ≤ 0.5 |
| A45C A57C G58C | 0.602 |

| Variant | yeast fitness |
| --- | --- |
| U2C G12A C27G C46A C55U | ≤ 0.5 |
| C30U C33G C55U G68U | ≤ 0.5 |
| A21C C22G C49U | ≤ 0.5 |
| A14G A37C A65G | 0.659 |
| U32A A37G U47A | ≤ 0.5 |
| U19A C46U G48A U53C | 0.784 |
| A15G C34U A40U | ≤ 0.5 |
| G6A U13A U19C A40U | ≤ 0.5 |
| A36U A45C C55U | ≤ 0.5 |
| C34U A37U G67C | ≤ 0.5 |
| U16C C29U C62U | 0.508 |
| C34G G38C C62G A69C | ≤ 0.5 |
| G9C C11U A20C C31U U59A | ≤ 0.5 |
| C31G C55G | 0.592 |
| G9A U13G U26C | ≤ 0.5 |
| G12A A15G A36C A37G | ≤ 0.5 |
| C4A C27G C55U | ≤ 0.5 |
| C31G G39C G56A | ≤ 0.5 |
| U2A U7A G10A C33A A36C | ≤ 0.5 |
| U2G A36U C61G | ≤ 0.5 |
| C5A A57U | 0.669 |
| C4A G12C A42U | ≤ 0.5 |
| A15G A21C C29G C30U A45U | ≤ 0.5 |
